Whole data set: some 1,900 compounds, median “excess over highest single agent (ExcessHSA) synergy score, 6x6 matrix” near -83, cut for the lowest 2% near -370. The list shows a part of the results.
System: NCI-H446
Assay: excess over highest single agent (ExcessHSA) synergy score, 6x6 matrix; higher = less synergy (more negative = stronger synergy)
Conditions: 72 h; CellTiter-Glo viability

SMILES	excess over highest single agent
C=CC(=O)Nc1ccc2ncnc(Nc3ccc(OCc4cccc(F)c4)c(Cl)c3)c2c1 + Cc1sc2c(c1C)C(c1ccc(Cl)cc1)=N[C@@H](CC(=O)OC(C)(C)C)c1nnc(C)n1-2 [NCGC00250412-19]	-234
Cc1nc(N)sc1-c1ccnc(Nc2ccc(N3CCOCC3)cc2)n1 + Cc1sc2c(c1C)C(c1ccc(Cl)cc1)=N[C@@H](CC(=O)OC(C)(C)C)c1nnc(C)n1-2 [NCGC00250412-19]	-56.9
C[C@]12CC[C@@H]3c4ccc(O)cc4CC[C@H]3[C@@H]1C[C@@H](O)[C@@H]2O + Cc1sc2c(c1C)C(c1ccc(Cl)cc1)=N[C@@H](CC(=O)OC(C)(C)C)c1nnc(C)n1-2 [NCGC00250412-19]	-52.9
C[C@@H]1CN(CC(=O)Nc2ccc3c(c2)Cc2cccc(-c4cc(=O)cc(N5CCOCC5)o4)c2S3)C[C@H](C)O1 + Cc1sc2c(c1C)C(c1ccc(Cl)cc1)=N[C@@H](CC(=O)OC(C)(C)C)c1nnc(C)n1-2 [NCGC00250412-19]	-4.5
Cc1noc(NS(=O)(=O)c2ccc(N)cc2)c1C + Cc1sc2c(c1C)C(c1ccc(Cl)cc1)=N[C@@H](CC(=O)OC(C)(C)C)c1nnc(C)n1-2 [NCGC00250412-19]	385
CCc1cccc2c3c([nH]c12)C(CC)(CC(=O)O)OCC3 (stereo unspecified) + Cc1sc2c(c1C)C(c1ccc(Cl)cc1)=N[C@@H](CC(=O)OC(C)(C)C)c1nnc(C)n1-2 [NCGC00250412-19]	-115
CCC[C@H](NC(=O)[C@@H]1[C@H]2CCC[C@H]2CN1C(=O)[C@@H](NC(=O)[C@@H](NC(=O)c1cnccn1)C1CCCCC1)C(C)(C)C)C(=O)C(=O)NC1CC1 + Cc1sc2c(c1C)C(c1ccc(Cl)cc1)=N[C@@H](CC(=O)OC(C)(C)C)c1nnc(C)n1-2 [NCGC00250412-19]	-97.5
CCOC(=O)[C@H](CCc1ccccc1)N[C@@H](C)C(=O)N1CCC[C@H]1C(=O)O + Cc1sc2c(c1C)C(c1ccc(Cl)cc1)=N[C@@H](CC(=O)OC(C)(C)C)c1nnc(C)n1-2 [NCGC00250412-19]	-63.7
CNC(=O)[C@H](Cc1ccccc1)NC(=O)[C@H](CC(C)C)[C@H](CSc1cccs1)C(=O)NO + Cc1sc2c(c1C)C(c1ccc(Cl)cc1)=N[C@@H](CC(=O)OC(C)(C)C)c1nnc(C)n1-2 [NCGC00250412-19]	-173
CC1(C)CCC(CN2CCN(c3ccc(C(=O)NS(=O)(=O)c4ccc(NCC5CCOCC5)c([N+](=O)[O-])c4)c(Oc4cnc5[nH]ccc5c4)c3)CC2)=C(c2ccc(Cl)cc2)C1 + Cc1sc2c(c1C)C(c1ccc(Cl)cc1)=N[C@@H](CC(=O)OC(C)(C)C)c1nnc(C)n1-2 [NCGC00250412-19]	-286
CCCCCCCCCCC[C@@H](C[C@@H]1OC(=O)[C@H]1CCCCCC)OC(=O)[C@H](CC(C)C)NC=O + Cc1sc2c(c1C)C(c1ccc(Cl)cc1)=N[C@@H](CC(=O)OC(C)(C)C)c1nnc(C)n1-2 [NCGC00250412-19]	-106
CS(=O)(=O)c1cccc(CNc2nc(Nc3ccc4c(c3)CCC(=O)N4)ncc2C(F)(F)F)c1 + Cc1sc2c(c1C)C(c1ccc(Cl)cc1)=N[C@@H](CC(=O)OC(C)(C)C)c1nnc(C)n1-2 [NCGC00250412-19]	58.6
Cc1cccc(/C=N/Nc2cc(N3CCOCC3)nc(OCCc3ccccn3)n2)c1 + Cc1sc2c(c1C)C(c1ccc(Cl)cc1)=N[C@@H](CC(=O)OC(C)(C)C)c1nnc(C)n1-2 [NCGC00250412-19]	-218
Cc1n[nH]c2ccc(-c3cncc(OC[C@@H](N)Cc4c[nH]c5ccccc45)c3)cc12 + Cc1sc2c(c1C)C(c1ccc(Cl)cc1)=N[C@@H](CC(=O)OC(C)(C)C)c1nnc(C)n1-2 [NCGC00250412-19]	-246
CC(C)(S)[C@@H](N)C(=O)O + Cc1sc2c(c1C)C(c1ccc(Cl)cc1)=N[C@@H](CC(=O)OC(C)(C)C)c1nnc(C)n1-2 [NCGC00250412-19]	-143
Cc1cc(-c2nnc3n2CCCCC3)c(C)n1-c1ccccc1 + Cc1sc2c(c1C)C(c1ccc(Cl)cc1)=N[C@@H](CC(=O)OC(C)(C)C)c1nnc(C)n1-2 [NCGC00250412-19]	-101
COc1cc(Nc2ncc(F)c(Nc3ccc4c(n3)NC(=O)C(C)(C)O4)n2)cc(OC)c1OC + Cc1sc2c(c1C)C(c1ccc(Cl)cc1)=N[C@@H](CC(=O)OC(C)(C)C)c1nnc(C)n1-2 [NCGC00250412-19]	-11
CCC[C@H](Nc1nc(-c2ccc(NC(=O)NCC)c(OC)c2)ncc1C)c1cccnc1 + Cc1sc2c(c1C)C(c1ccc(Cl)cc1)=N[C@@H](CC(=O)OC(C)(C)C)c1nnc(C)n1-2 [NCGC00250412-19]	-122

2 successive entries out of the list so far:
SMILES	excess over highest single agent
CCCCCCCCCCC[C@@H](C[C@@H]1OC(=O)[C@H]1CCCCCC)OC(=O)[C@H](CC(C)C)NC=O + Cc1sc2c(c1C)C(c1ccc(Cl)cc1)=N[C@@H](CC(=O)OC(C)(C)C)c1nnc(C)n1-2 [NCGC00250412-19]	-106
CS(=O)(=O)c1cccc(CNc2nc(Nc3ccc4c(c3)CCC(=O)N4)ncc2C(F)(F)F)c1 + Cc1sc2c(c1C)C(c1ccc(Cl)cc1)=N[C@@H](CC(=O)OC(C)(C)C)c1nnc(C)n1-2 [NCGC00250412-19]	58.6

Next part

SMILES	excess over highest single agent
CC(C)(Sc1cc(C(C)(C)C)c(O)c(C(C)(C)C)c1)Sc1cc(C(C)(C)C)c(O)c(C(C)(C)C)c1 + Cc1sc2c(c1C)C(c1ccc(Cl)cc1)=N[C@@H](CC(=O)OC(C)(C)C)c1nnc(C)n1-2 [NCGC00250412-19]	168
CS(=O)(=O)CCNCc1ccc(-c2ccc3ncnc(Nc4ccc(OCc5cccc(F)c5)c(Cl)c4)c3c2)o1 + Cc1sc2c(c1C)C(c1ccc(Cl)cc1)=N[C@@H](CC(=O)OC(C)(C)C)c1nnc(C)n1-2 [NCGC00250412-19]	-336
N#CC(c1ccc(Cl)cc1)c1c(Cl)cc(-n2ncc(=O)[nH]c2=O)cc1Cl (stereo unspecified) + Cc1sc2c(c1C)C(c1ccc(Cl)cc1)=N[C@@H](CC(=O)OC(C)(C)C)c1nnc(C)n1-2 [NCGC00250412-19]	-103
O=c1ccc2ccc(O)c(O)c2o1 + Cc1sc2c(c1C)C(c1ccc(Cl)cc1)=N[C@@H](CC(=O)OC(C)(C)C)c1nnc(C)n1-2 [NCGC00250412-19]	-120
COc1cc(OC)c(C(=O)CCCN2CCCC2)c(OC)c1 + Cc1sc2c(c1C)C(c1ccc(Cl)cc1)=N[C@@H](CC(=O)OC(C)(C)C)c1nnc(C)n1-2 [NCGC00250412-19]	-58
CC(=O)Nc1sc2c(c1-c1nc3ccccc3s1)CNC2 + Cc1sc2c(c1C)C(c1ccc(Cl)cc1)=N[C@@H](CC(=O)OC(C)(C)C)c1nnc(C)n1-2 [NCGC00250412-19]	354
CC(C)(C)C(=O)OCOP(=O)(COCCn1cnc2c(N)ncnc21)OCOC(=O)C(C)(C)C + Cc1sc2c(c1C)C(c1ccc(Cl)cc1)=N[C@@H](CC(=O)OC(C)(C)C)c1nnc(C)n1-2 [NCGC00250412-19]	-183
CN1CCC(=C2c3ccccc3CC(=O)c3sccc32)CC1 + Cc1sc2c(c1C)C(c1ccc(Cl)cc1)=N[C@@H](CC(=O)OC(C)(C)C)c1nnc(C)n1-2 [NCGC00250412-19]	-365
COc1ccccc1N1CCN(CC(O)COc2cccc3ccccc23)CC1 (stereo unspecified) + Cc1sc2c(c1C)C(c1ccc(Cl)cc1)=N[C@@H](CC(=O)OC(C)(C)C)c1nnc(C)n1-2 [NCGC00250412-19]	-45.4
CN1CCN(c2cc(C(=O)Nc3ccc4c(c3)-c3c(c(C(N)=O)nn3-c3ccc(F)cc3)CC4)c(Cl)cn2)CC1 + Cc1sc2c(c1C)C(c1ccc(Cl)cc1)=N[C@@H](CC(=O)OC(C)(C)C)c1nnc(C)n1-2 [NCGC00250412-19]	-19.7
CC[C@H](CC[C@@H](C)[C@H]1CC[C@H]2[C@@H]3CC=C4C[C@@H](O)CC[C@]4(C)[C@H]3CC[C@]12C)C(C)C + Cc1sc2c(c1C)C(c1ccc(Cl)cc1)=N[C@@H](CC(=O)OC(C)(C)C)c1nnc(C)n1-2 [NCGC00250412-19]	-193
O=C(O)CC[C@H]1CC[C@@](c2cc(F)ccc2F)(S(=O)(=O)c2ccc(Cl)cc2)CC1 + Cc1sc2c(c1C)C(c1ccc(Cl)cc1)=N[C@@H](CC(=O)OC(C)(C)C)c1nnc(C)n1-2 [NCGC00250412-19]	-194
C/C=C1\NC(=O)[C@H]2CSSCC/C=C/[C@H](CC(=O)N[C@H](C(C)C)C(=O)N2)OC(=O)[C@H](C(C)C)NC1=O + Cc1sc2c(c1C)C(c1ccc(Cl)cc1)=N[C@@H](CC(=O)OC(C)(C)C)c1nnc(C)n1-2 [NCGC00250412-19]	-38.7
CN(C)CC(C)(C)CNc1nn2c(-c3ccccc3)nnc2cc1C1CCC1 + Cc1sc2c(c1C)C(c1ccc(Cl)cc1)=N[C@@H](CC(=O)OC(C)(C)C)c1nnc(C)n1-2 [NCGC00250412-19]	-2.17
C[C@@H]1[C@H](O)[C@@H](C)/C=C/C=C/C=C/C=C/C=C/C=C/C=C/[C@H](O[C@@H]2O[C@H](C)[C@@H](O)[C@H](N)[C@@H]2O)C[C@@H]2O[C@](O)(C[C@@H](O)C[C@@H](O)[C@H](O)CC[C@@H](O)C[C@@H](O)CC(=O)O[C@H]1C)C[C@H](O)[C@H]2C(=O)O + Cc1sc2c(c1C)C(c1ccc(Cl)cc1)=N[C@@H](CC(=O)OC(C)(C)C)c1nnc(C)n1-2 [NCGC00250412-19]	-139
CCOC(=O)C(C)(C)Oc1ccc(Cl)cc1 + Cc1sc2c(c1C)C(c1ccc(Cl)cc1)=N[C@@H](CC(=O)OC(C)(C)C)c1nnc(C)n1-2 [NCGC00250412-19]	258
CN(C)c1ccc(O)c2c1C[C@H]1C[C@H]3[C@H](N(C)C)C(=O)C(C(N)=O)=C(O)[C@@]3(O)C(=O)C1=C2O + Cc1sc2c(c1C)C(c1ccc(Cl)cc1)=N[C@@H](CC(=O)OC(C)(C)C)c1nnc(C)n1-2 [NCGC00250412-19]	-85.8
CNc1nccc(-c2cccnc2Oc2cc(C(=O)Nc3cccc(C(F)(F)F)c3)ccc2C)n1 + Cc1sc2c(c1C)C(c1ccc(Cl)cc1)=N[C@@H](CC(=O)OC(C)(C)C)c1nnc(C)n1-2 [NCGC00250412-19]	-146
